Laboratory results: PubChem BioAssay AID1259266 (Sanger Institute, 2017)

Aim: 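Essential genes and drug synergy among kinases and colorectal-mutated genes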 (primary screen)
Cell system: LS123 human colorectal cancer cells
Reagents: siRNA pool against human genes
Conditions: anchor drugs BYL719 (1 µM), cetuximab (5 µg/ml) or trametinib (10 nM), each chosen to barely slow growth alone; DMSO vehicle as the drug-free arm
Measurement: 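Viability relative to non-targeting control pools, replicate mean, with a robust z-score for knock-down alone and synergy scores for each anchor drug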
Scale: robust z-score, knock-down alone: higher = more cells surviving after knock-down; viability, knock-down alone: higher = more viable cells
Units: viability, knock-down alone in fraction of control
Rule for the call: 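a knock-down counts as essential if its z-score without drug is under -3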
Meaning of the calls: active = essential (knock-down alone cuts viability); inactive = no change
The deposit covers 794 reagents; this is a random part of them. 16 of all reagents (2%) were called active. 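Calls reflect knock-down alone, not drug synergy; viability seems capped at 1 and z-scores at 0.585.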 A number with no mark means an inactive call. Further read-outs or replicates are left out here. The record does not give: the amount of reagent, the time to read-out.

LRRK1 (leucine rich repeat kinase 1) — robust z-score, knock-down alone = 0.585; viability, knock-down alone = 1
PIK3R5 (phosphoinositide-3-kinase regulatory subunit 5) — robust z-score, knock-down alone = 0.131; viability, knock-down alone = 0.973
MAPKAPK5 (MAPK activated protein kinase 5) — robust z-score, knock-down alone = -0.245; viability, knock-down alone = 0.951
PIK3CD — robust z-score, knock-down alone = 0.585; viability, knock-down alone = 1
CKB (creatine kinase B) — robust z-score, knock-down alone = 0.585; viability, knock-down alone = 1
GUCY2EP (guanylate cyclase 2E, pseudogene) — robust z-score, knock-down alone = 0.585; viability, knock-down alone = 1
TRIO (trio Rho guanine nucleotide exchange factor) — robust z-score, knock-down alone = 0.585; viability, knock-down alone = 1
PLK2 (polo like kinase 2) — robust z-score, knock-down alone = 0.585; viability, knock-down alone = 1
BRWD1 (bromodomain and WD repeat domain containing 1) — robust z-score, knock-down alone = 0.585; viability, knock-down alone = 1
MED24 (mediator complex subunit 24) — robust z-score, knock-down alone = 0.585; viability, knock-down alone = 1
CDADC1 (cytidine and dCMP deaminase domain containing 1) — robust z-score, knock-down alone = 0.585; viability, knock-down alone = 1
TEX14 (testis expressed 14, intercellular bridge forming factor) — robust z-score, knock-down alone = -0.994; viability, knock-down alone = 0.906
PHKG1 (phosphorylase kinase catalytic subunit gamma 1) — robust z-score, knock-down alone = 0.585; viability, knock-down alone = 1
ANKK1 (ankyrin repeat and kinase domain containing 1) — robust z-score, knock-down alone = 0.585; viability, knock-down alone = 1
NPR2 (natriuretic peptide receptor 2) — robust z-score, knock-down alone = 0.29; viability, knock-down alone = 0.982
TBCK (TBC1 domain containing kinase) — robust z-score, knock-down alone = 0.585; viability, knock-down alone = 1
MVK (mevalonate kinase) — robust z-score, knock-down alone = 0.585; viability, knock-down alone = 1
DGKA (diacylglycerol kinase alpha) — robust z-score, knock-down alone = 0.506; viability, knock-down alone = 0.995
FN3KRP (fructosamine 3 kinase related protein) — robust z-score, knock-down alone = 0.585; viability, knock-down alone = 1
GSK3B (glycogen synthase kinase 3 beta) — robust z-score, knock-down alone = 0.585; viability, knock-down alone = 1
MARK4 (microtubule affinity regulating kinase 4) — robust z-score, knock-down alone = -1.06; viability, knock-down alone = 0.902
CDK2 (cyclin dependent kinase 2) — robust z-score, knock-down alone = 0.585; viability, knock-down alone = 1
CDC7 (cell division cycle 7) — robust z-score, knock-down alone = 0.585; viability, knock-down alone = 1
FER (FER tyrosine kinase) — robust z-score, knock-down alone = 0.585; viability, knock-down alone = 1
CDKL2 (cyclin dependent kinase like 2) — robust z-score, knock-down alone = -0.609; viability, knock-down alone = 0.929
SRMS — robust z-score, knock-down alone = -1.64; viability, knock-down alone = 0.868
MAPK15 (mitogen-activated protein kinase 15) — robust z-score, knock-down alone = 0.585; viability, knock-down alone = 1
EPHA8 (EPH receptor A8) — robust z-score, knock-down alone = -0.032; viability, knock-down alone = 0.963

2 entries already listed, arranged by “viability, knock-down alone”, lowest first:
TEX14 (testis expressed 14, intercellular bridge forming factor) — robust z-score, knock-down alone = -0.994; viability, knock-down alone = 0.906
CDADC1 (cytidine and dCMP deaminase domain containing 1) — robust z-score, knock-down alone = 0.585; viability, knock-down alone = 1
